Measured values published in publication doi:10.1101/2022.09.13.507776.
Read-outs that look alike come from different tables or passages of the source. These are yes or no findings as the source states them, for the method shown. In cells and extracts the contact can be indirect. These calls come from enrichment with a bait or labelling near it, and not all partners need be listed.

By UniProt entry, the sequences of proteins in these tests, tags left out.
UniProt Q811P8: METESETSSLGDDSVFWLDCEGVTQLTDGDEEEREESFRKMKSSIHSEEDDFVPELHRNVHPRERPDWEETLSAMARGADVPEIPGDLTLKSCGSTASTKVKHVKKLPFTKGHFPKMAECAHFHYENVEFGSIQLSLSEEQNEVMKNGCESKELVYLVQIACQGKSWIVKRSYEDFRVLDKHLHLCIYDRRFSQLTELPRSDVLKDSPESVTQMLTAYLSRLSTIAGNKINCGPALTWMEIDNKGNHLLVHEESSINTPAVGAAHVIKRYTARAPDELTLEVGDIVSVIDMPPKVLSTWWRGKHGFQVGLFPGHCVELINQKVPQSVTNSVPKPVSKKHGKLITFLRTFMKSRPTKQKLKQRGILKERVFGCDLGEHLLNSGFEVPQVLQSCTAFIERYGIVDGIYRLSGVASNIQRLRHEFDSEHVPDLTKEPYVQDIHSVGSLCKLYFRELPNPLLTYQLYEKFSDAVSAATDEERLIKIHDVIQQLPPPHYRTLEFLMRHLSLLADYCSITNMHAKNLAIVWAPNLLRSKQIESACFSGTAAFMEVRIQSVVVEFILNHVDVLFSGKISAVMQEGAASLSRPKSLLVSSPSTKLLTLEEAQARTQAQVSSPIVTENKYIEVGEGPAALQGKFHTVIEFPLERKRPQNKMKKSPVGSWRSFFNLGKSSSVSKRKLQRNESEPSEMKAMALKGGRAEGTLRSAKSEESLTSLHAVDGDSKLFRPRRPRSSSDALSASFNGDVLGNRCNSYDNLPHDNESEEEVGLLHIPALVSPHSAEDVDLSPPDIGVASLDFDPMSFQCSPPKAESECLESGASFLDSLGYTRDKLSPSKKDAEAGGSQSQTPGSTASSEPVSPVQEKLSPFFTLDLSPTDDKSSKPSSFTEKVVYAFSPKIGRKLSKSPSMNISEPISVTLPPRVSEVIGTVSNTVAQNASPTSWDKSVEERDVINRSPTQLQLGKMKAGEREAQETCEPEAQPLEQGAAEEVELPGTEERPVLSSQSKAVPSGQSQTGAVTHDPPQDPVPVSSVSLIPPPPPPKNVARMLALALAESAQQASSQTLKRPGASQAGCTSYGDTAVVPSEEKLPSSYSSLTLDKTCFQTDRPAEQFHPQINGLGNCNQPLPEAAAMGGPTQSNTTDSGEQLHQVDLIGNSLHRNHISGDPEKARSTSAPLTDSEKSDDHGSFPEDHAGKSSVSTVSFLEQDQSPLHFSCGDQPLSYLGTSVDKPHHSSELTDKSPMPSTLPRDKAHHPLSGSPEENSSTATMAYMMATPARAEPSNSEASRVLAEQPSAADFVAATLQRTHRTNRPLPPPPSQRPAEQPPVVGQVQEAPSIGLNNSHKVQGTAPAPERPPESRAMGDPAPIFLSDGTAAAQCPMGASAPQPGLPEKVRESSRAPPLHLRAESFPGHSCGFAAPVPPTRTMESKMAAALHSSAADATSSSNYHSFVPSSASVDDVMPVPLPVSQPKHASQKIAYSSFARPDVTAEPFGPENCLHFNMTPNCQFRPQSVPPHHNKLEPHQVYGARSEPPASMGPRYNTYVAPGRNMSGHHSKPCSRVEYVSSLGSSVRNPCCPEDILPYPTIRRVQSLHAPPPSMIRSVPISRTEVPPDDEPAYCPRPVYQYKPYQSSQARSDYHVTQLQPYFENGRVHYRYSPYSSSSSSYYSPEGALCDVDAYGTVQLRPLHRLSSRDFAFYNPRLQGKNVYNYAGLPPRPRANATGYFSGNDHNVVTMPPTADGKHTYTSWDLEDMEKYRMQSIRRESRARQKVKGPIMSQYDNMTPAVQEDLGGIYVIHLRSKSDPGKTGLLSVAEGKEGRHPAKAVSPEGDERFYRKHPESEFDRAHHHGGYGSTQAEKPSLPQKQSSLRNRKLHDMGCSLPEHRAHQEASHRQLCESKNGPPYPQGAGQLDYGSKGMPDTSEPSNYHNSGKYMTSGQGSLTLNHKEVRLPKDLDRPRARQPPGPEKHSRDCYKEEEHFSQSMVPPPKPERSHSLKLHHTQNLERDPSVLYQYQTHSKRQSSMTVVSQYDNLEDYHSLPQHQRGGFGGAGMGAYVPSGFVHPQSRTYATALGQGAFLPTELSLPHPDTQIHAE
UniProt Q80U49: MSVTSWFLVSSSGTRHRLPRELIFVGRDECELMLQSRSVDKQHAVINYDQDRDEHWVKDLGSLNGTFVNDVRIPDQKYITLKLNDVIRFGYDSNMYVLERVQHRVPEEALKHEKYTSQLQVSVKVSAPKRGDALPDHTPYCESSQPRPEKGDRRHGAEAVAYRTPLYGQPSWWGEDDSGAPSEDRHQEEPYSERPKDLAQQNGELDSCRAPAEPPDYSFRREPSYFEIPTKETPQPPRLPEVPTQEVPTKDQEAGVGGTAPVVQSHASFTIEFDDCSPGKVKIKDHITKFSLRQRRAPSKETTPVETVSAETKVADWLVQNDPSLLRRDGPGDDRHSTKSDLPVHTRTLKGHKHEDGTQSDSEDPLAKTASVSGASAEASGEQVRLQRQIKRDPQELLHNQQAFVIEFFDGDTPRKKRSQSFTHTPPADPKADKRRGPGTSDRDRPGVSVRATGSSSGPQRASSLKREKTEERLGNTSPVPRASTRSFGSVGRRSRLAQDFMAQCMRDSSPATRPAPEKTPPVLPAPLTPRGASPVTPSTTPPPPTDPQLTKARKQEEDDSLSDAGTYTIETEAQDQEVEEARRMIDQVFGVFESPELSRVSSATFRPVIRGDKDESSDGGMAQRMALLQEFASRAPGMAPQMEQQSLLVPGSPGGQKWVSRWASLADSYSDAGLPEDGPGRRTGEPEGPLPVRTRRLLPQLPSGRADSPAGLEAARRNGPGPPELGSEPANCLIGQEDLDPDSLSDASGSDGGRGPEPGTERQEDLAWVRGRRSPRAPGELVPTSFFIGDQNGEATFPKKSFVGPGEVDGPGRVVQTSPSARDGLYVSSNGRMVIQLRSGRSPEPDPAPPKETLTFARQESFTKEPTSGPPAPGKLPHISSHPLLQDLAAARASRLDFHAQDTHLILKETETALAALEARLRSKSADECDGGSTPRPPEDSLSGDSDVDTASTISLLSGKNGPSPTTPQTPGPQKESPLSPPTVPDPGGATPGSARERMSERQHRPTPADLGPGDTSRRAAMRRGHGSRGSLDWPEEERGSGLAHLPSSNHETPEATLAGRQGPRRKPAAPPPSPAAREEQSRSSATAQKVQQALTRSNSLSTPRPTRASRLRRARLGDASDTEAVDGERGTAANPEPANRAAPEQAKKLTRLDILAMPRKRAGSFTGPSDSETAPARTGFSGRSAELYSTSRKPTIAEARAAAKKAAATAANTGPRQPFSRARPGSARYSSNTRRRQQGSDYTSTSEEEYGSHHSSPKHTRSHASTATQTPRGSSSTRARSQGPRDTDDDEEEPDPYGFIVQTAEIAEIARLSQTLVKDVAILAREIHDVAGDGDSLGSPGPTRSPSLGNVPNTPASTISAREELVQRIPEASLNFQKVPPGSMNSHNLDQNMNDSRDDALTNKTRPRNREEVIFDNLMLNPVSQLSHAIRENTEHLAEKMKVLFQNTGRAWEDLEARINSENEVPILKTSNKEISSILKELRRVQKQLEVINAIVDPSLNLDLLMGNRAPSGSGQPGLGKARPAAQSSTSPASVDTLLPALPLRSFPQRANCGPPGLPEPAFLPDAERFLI

T1: catenin delta-2 (CTNND2), mouse (mouse (endogenous in P15 mouse brain)) (UniProt O35927)
T1 sequence: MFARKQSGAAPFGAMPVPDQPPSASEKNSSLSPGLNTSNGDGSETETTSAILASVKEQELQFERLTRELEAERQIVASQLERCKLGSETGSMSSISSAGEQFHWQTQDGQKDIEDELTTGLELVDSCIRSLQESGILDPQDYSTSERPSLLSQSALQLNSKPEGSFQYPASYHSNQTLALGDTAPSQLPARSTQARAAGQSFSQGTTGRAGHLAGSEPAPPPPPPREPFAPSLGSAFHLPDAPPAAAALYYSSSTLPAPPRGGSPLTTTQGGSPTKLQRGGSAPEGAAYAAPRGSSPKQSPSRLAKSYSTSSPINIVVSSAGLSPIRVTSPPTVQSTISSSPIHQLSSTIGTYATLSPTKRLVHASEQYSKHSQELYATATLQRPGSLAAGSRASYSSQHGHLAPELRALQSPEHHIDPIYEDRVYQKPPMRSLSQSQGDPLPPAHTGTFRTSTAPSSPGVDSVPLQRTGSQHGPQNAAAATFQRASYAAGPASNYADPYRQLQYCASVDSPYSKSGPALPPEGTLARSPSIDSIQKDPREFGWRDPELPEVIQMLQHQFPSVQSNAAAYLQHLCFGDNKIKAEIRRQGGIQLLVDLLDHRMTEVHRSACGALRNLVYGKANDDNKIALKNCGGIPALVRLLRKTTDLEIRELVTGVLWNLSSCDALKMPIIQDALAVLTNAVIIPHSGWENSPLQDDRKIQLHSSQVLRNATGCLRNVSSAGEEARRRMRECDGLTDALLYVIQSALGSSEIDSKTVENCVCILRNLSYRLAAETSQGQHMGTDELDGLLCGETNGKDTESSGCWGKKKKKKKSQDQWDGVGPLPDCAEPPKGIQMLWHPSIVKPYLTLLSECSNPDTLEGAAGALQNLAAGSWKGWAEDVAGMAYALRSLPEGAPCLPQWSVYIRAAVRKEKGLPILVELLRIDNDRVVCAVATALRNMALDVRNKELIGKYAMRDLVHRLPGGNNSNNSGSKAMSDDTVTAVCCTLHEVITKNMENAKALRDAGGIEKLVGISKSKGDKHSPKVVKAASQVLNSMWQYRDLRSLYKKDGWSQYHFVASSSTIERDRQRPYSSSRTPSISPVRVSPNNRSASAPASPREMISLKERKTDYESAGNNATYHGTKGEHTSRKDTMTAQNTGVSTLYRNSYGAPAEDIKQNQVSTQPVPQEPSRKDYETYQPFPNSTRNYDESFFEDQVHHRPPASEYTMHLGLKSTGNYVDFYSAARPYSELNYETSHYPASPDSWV


Tests used:
[1] = molecular target: T1, catenin delta-2 (CTNND2), mouse (mouse (endogenous in P15 mouse brain)); assay: affinity purification with mass spectrometry
[2] = molecular target: T1, catenin delta-2 (CTNND2), mouse (mouse (endogenous in P15 mouse brain)); assay: affinity purification with mass spectrometry; remark: listed apart in the source

binding [1]	binding [2]	Molecule
binds		ARHGAP32 (from UniProt Q811P8 1-2089)
binds		SYNGAP1, mouse (from UniProt F6SEU4 1-1340)
binds		CEP170B (from UniProt Q80U49 1-1574)
	binds	SRCIN1 (protein, UniProt Q9QWI6 1-1250) MQPWQCLRRFALAWWERTAEGRARSPREEVGPRDPGGRGEPDPERSSPPMLSADDAEYPREYRTLGGGGGGGSGGRRFSNVGLVHTSERRHTVIAAQSLEALSGLQKADADRKRDAFMDHLKSKYPQHALALRGQQDRMREQVGGWTVDPVCLLSSLCSHLHGDSTPSGAGQPAQQPNYWSFKTRSSRHTQGAQPGLADQAAKLSYASAESLETMSEAELPLGFSRMNRFRQSLPLSRSASQTKLRSPGVLFLQFGEETRRVHITHEVSSLDTLHALIAHMFPQKLTMGMLKSPNTAILIKDEARNVFYELEDVRDIQDRSIIKIYRKEPLYAAFPGSHLTNGDLRREMVYASRESSPTRRLNNLSPASHLASSSPPPGLPSGLPSGLPSGSPSRSRLSYAGGRPPSYAGSPVHHAAERLGGAPTGQGVSPSPSAILERRDVKPDEDLAGKAGGMVLVKGEGLYADPYGLLHEGRLSLAAAAETHSHTRARAACTSGVPCALSAPTPLPRCSPTWRTRCTRRALAALYGDGYGFRLPPSSPQKLADVSAPSGGPPPPHSPYSGPPSRGSPVRQSFRKDSGSSSVFAESPGGKARSTGSASTAGAPPSELFPGPGERSLVGFGPPVPAKDTETRERMEAMEKQIASLTGLVQSALLRGSEPETPSEKVEGSNGAATPSAPVCGSGSKSSGATPVSGPPPPSASSTPAGQPTAVSRLQMQLHLRGLQNSASDLRGQLQQLRNVQLQNQESVRALLKPTEADVSMRVSEAARRQEDPLQRQRTLVEEERLRYLNDEELITQQLNDLEKSVEKIQRDVAHNHRLMPGPELEEKALVLKQLGETLTELKAHFPGLQSKMRVVLRVEVEAVKFLKEEPQRLDGLLKRCRGVTDTLAQIRRQVDEGMWPPPNNLLNQSPKKVAAETDFSKGLDFEIPPPSPPLNLHELSGPAEGTPLTPKSTNPTKCLDASSKRNTDKAVSVEAAERDWEEKRAALTQYSAKDINRLLEETQAELLKAIPDLDCASKTHPGPAPTPDHKPPKAPHGQKAAPRTEPSGRRGSDELTVPRYRTEKPSKSPPPPPPRRSFPSSHGLTTTRTGEVVVTSKKDSVFIKKAESEELEVQKPQVKLRRAVSEVVRPASTPPIMASAIKDEDDEERIIAELESGGSSVPPMKVVTPGASRLKAAQGPAGSPDKGKHGKQRTEYMRIQAQQQATKPSKEVSGPNETSSPGSEKPSGSRTSIPVLTSFGARNSSISF
	binds	CTNNA2 (protein, UniProt Q61301 1-953) MTSATSPIILKWDPKSLEIRTLTVERLLEPLVTQVTTLVNTSNKGPSGKKKGRSKKAHVLAASVEQATQNFLEKGEQIAKESQDLKEELVAAVEDVRKQGETMRIASSEFADDPCSSVKRGTMVRAARALLSAVTRLLILADMADVMRLLSHLKIVEEALEAVKNATNEQDLANRFKEFGKEMVKLNYVAARRQQELKDPHCRDEMAAARGALKKNATMLYTASQAFLRHPDVAATRANRDYVFKQVQEAIAGISSAAQATSPTDEAKGHTGIGELAAALNEFDNKIILDPMTFSEARFRPSLEERLESIISGAALMADSSCTRDDRRERIVAECNAVRQALQDLLSEYMNNTGRKEKGDPLNIAIDKMTKKTRDLRRQLRKAVMDHISDSFLETNVPLLVLIEAAKSGNEKEVKEYAQVFREHANKLVEVANLACSISNNEEGVKLVRMAATQIDSLCPQVINAALTLAARPQSKVAQDNMDVFKDQWEKQVRVLTEAVDDITSVDDFLSVSENHILEDVNKCVIALQEGDVDTLDRTAGAIRGRAARVIHIINAEMENYEAGVYTEKVLEATKLLSETVMPRFAEQVEVAIEALSANVPQPFEENEFIDASRLVYDGVRDIRKAVLMIRTPEELEDDSDFEQEDYDVRSRTSVQTEDDQLIAGQSARAIMAQLPQEEKAKIAEQVEIFHQEKSKLDAEVAKWDDSGNDIIVLAKQMCMIMMEMTDFTRGKGPLKNTSDVINAAKKIAEAGSRMDKLARAVADQCPDSACKQDLLAYLQRIALYCHQLNICSKVKAEVQNLGGELIVSGTGVQSTFTTFYEVDCDVIDGGRASQLSTHLPTCAEGAPIGSGSSDSSMLDSATSLIQAAKNLMNAVVLTVKASYVASTKYQKVYGTAAVNSPVVSWKMKAPEKKPLVKREKPEEFQTRVRRGSQKKHISPVQALSEFKAMDSF
	binds	PKP4 (protein, UniProt Q68FH0 1-1190) MPAPEQGSLVEEGQPQTHQEAVSTGPGMEPETTATTILASVKEQELQFQRLTRELEVERQIVASQLERCRLGAESPSIASTSSTEKSFPWRSTDVPNPGVSKPRVSDTIHPNNYLIRTEPEQGTLYSPEQTSLHESEGSLGNSRSSTQMNSYSDSGYQEAGSFHNSQTVNKADSRQHPFTGSTSNHVVRTSRAEGQTLVQPSVANRAMRRVSSVPSRAQSPSYVTSTGVSPSRGSLRTSLGSGFGSPSVTDSRPLNPSAYSSSTLPAQRAASPYSQRPASPTAVRRVGSVTSRQTSNPNGPVPQYQTTTRVGSPLTLTDAQTRVASPSQGQVGSSSPKRSGMTAVPQHLGPSLQRTVHDMDQFGQQQYDIYERMVPPRPDSLTGLRSSYASQHSQLGQELRSAVSPDLHITPIYEGRTYYSPVYRSPNHGTVELQGSQTALYRTGSVGIGNLQRTSSQRSTLTYQRNNYALNTAATYAEPYRPVQYRVQECSYNRLQHTGPADDGATRSPSIDSIQKDPREFAWRDPELPEVIHMLQHQFPSVQANAAAYLQHLCFGDNKVKMEVYRLGGIKHLVDLLDHRVLEVQKNACGALRNLVFGKSTDENKIAMKNVGGIPALLRLLRKSIDAEVRELVTGVLWNLSSCDAVKMTIIRDALSTLTNTVIVPHSGWNNSSFDDDHKIKFQTSLVLRNTTGCLRNLSSAGEEARKQMRSCEGLVDSLLYVIHTCVNTSDYDSKTVENCVCTLRNLSYRLELEVPQARLLGLNELDDLLGKESPSKDSEPSCWGKKKKKKKRTPQEDQWDGVGPIPGLSKSPKGVEMLWHPSVVKPYLTLLAESSNPATLEGSAGSLQNLSAGNWKFAAYIRAAVRKEKGLPILVELLRMDNDRVVSSVATALRNMALDVRNKELIGKYAMRDLVNRLPGGNGPSILSDETVAAICCALHEVTSKNMENAKALADSGGIEKLVNITKGRGDRSSLKVVKAAAQVLNTLWQYRDLRSIYKKDGWNQNHFITPVSTLERDRFKSHPSLSTTNQQMSPIIQSVGSTSSSPALLGIREPRSEYDRTQPPMQYYNSQGDTTHKGLYPGSSKPSPIYISSYSSPAREQNRRLQHQQLYYQDDSTRKTLDAYRLYLQSPRSYEDPYCDDRVHFPASTDYSTQYGLKSTTNYVDFYSTKRPSYRAEQYPGSPDSWV
	binds	AKAP10 (protein, UniProt O88845 29-662) KVKGKEQEKTLDVKSTKASVAVHSPQKSTKNHALLEAAGPSHVAINAISANMDSFSSSRTATLKKQPSHMEAAHFGDLGRSCLDYQTQETKSSLSKTLEQVLRDTVVLPYFLQFMELRRMEHLVKFWLEAESFHSTTWSRIRAHSLNTVKQSSLAEPVSPSKRHETPASSVTEALDRRLGDSSSAPLLVTQSEGTDLSSRTQNPQNHLLLSQEGHSARSLHREVARTGSHQIPTDSQDSSSRLAVGSRNSCSSPLRELSEKLMKSIEQDAVNTFTKYISPDAAKPIPITEAMRNDIIAKICGEDGQVDPNCFVLAQAVVFSAMEQEHFSEFLRSHHFCKYQIEVLTSGTVYLADILFCESALFYFSEYMEKEDAVNILQFWLAADNFQSQLAAKKGQYDGQEAQNDAMILYDKYFSLQATHPLGFDDVVRLEIESNICREGGPLPNCFTTPLRQAWTTMEKVFLPGFLSSNLYYKYLNDLIHSVRGDEFLGGNVSLAAHGSVCLPEESHSGGSDGSTAQSSVKKASIKILKNFDEAIIVDAASLDPESLYQRTYAGKMSFGRVSDLGQFIRESEPEPDVKKSKGFMFSQAMKKWVQGNTDEAQEELAWKIAKMIVSDVMQQAHHDQPLEKSTKL
